Measurements taken from BindingDB's records for doi:10.1016/S0893-133X(97)00112-7 (H. Lundbeck, 1998).

The chains behind the UniProt entries cited, without tags or fusion partners.
UniProt P19020, whole entry: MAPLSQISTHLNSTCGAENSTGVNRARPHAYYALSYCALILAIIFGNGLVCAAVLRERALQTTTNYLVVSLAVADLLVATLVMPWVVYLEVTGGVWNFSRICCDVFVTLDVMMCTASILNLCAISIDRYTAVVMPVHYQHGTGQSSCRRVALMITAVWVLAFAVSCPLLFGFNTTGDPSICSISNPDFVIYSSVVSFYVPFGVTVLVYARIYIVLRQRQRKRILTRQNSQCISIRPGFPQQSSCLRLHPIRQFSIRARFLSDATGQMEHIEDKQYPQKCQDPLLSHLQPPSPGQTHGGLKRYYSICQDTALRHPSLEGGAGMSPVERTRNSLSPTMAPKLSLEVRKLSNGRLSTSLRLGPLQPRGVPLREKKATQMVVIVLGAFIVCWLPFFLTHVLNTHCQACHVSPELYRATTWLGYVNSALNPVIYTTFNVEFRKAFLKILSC

Target: D(3) dopamine receptor (Rattus norvegicus, UniProt P19020)

Ki: 180 nM
SMILES: OCCOCCN1CCN(C2=Nc3ccccc3Sc3ccccc32)CC1 [2-[2-(4-dibenzo[b,f][1,4]thiazepin-11-ylpiperazin-1-yl)ethoxy]ethanol]
